Experimental findings from article PMC9120066 are described below.

Results are given in words; binding and its absence hold for the method and conditions named. In cells and extracts the contact can be indirect. Some binding calls cover weakened binding; strength is not graded here. For some assays here: Tags and fused reporters may be left off the sequences shown.

Assay [1] deals with T1, Flag-SH2B3, Q9UQQ2.
T1 chain: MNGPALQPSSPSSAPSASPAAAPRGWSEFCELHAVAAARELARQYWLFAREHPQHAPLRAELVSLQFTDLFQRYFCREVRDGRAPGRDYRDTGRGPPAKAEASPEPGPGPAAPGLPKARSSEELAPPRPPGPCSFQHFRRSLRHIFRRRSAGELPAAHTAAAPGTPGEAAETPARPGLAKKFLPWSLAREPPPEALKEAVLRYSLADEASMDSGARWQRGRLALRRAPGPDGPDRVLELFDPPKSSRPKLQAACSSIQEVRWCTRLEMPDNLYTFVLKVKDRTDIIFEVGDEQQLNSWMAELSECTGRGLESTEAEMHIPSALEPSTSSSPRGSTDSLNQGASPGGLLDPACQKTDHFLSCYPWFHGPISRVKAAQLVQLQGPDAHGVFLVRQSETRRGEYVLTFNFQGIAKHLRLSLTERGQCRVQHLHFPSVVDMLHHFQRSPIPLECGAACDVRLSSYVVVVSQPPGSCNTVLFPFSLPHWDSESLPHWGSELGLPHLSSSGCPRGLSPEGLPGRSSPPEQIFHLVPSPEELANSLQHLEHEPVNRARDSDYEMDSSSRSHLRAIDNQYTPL
In words: co-IP; lysate of lung cancer cells co-transfected with Flag-SH2B3 and Myc-JAK2 or Myc-SHP2; anti-Flag antibody 1 h at 4 °C, Protein-A Sepharose beads overnight at 4 °C; western blot. The note with it: remark: other sources report otherwise. A general note: Immunoblotting shows a protein as a band on a membrane.

In assay [2] the target is T2, SH2B3 (endogenous) (human (endogenous in lung cancer cells)), Q9UQQ2.
T2 chain: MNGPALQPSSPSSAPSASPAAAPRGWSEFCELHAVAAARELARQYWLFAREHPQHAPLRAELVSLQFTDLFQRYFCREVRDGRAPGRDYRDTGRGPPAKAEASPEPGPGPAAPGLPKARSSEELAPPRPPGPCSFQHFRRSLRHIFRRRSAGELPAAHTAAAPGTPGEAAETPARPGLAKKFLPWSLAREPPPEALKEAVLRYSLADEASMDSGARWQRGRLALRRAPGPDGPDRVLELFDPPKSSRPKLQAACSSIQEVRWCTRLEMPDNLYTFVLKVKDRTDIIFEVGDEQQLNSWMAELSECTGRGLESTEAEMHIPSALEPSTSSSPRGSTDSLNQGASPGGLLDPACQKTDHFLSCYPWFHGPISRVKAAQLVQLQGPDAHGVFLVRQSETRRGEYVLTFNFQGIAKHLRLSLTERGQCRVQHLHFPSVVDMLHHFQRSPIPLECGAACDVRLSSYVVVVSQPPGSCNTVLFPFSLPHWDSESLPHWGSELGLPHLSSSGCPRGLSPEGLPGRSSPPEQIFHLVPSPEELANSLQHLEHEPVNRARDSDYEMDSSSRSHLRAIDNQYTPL
Put plainly: co-IP; lysate of naive lung cancer cells; anti-SH2B3 antibody 1 h at 4 °C, Protein-A Sepharose beads overnight at 4 °C; western blot of the endogenous partner. The settings on record: remark: other sources report otherwise.

B1: Myc-JAK2, O60674 1-1132 (protein)
chain: MGMACLTMTEMEGTSTSSIYQNGDISGNANSMKQIDPVLQVYLYHSLGKSEADYLTFPSGEYVAEEICIAASKACGITPVYHNMFALMSETERIWYPPNHVFHIDESTRHNVLYRIRFYFPRWYCSGSNRAYRHGISRGAEAPLLDDFVMSYLFAQWRHDFVHGWIKVPVTHETQEECLGMAVLDMMRIAKENDQTPLAIYNSISYKTFLPKCIRAKIQDYHILTRKRIRYRFRRFIQQFSQCKATARNLKLKYLINLETLQSAFYTEKFEVKEPGSGPSGEEIFATIIITGNGGIQWSRGKHKESETLTEQDLQLYCDFPNIIDVSIKQANQEGSNESRVVTIHKQDGKNLEIELSSLREALSFVSLIDGYYRLTADAHHYLCKEVAPPAVLENIQSNCHGPISMDFAISKLKKAGNQTGLYVLRCSPKDFNKYFLTFAVERENVIEYKHCLITKNENEEYNLSGTKKNFSSLKDLLNCYQMETVRSDNIIFQFTKCCPPKPKDKSNLLVFRTNGVSDVPTSPTLQRPTHMNQMVFHKIRNEDLIFNESLGQGTFTKIFKGVRREVGDYGQLHETEVLLKVLDKAHRNYSESFFEAASMMSKLSHKHLVLNYGVCVCGDENILVQEFVKFGSLDTYLKKNKNCINILWKLEVAKQLAWAMHFLEENTLIHGNVCAKNILLIREEDRKTGNPPFIKLSDPGISITVLPKDILQERIPWVPPECIENPKNLNLATDKWSFGTTLWEICSGGDKPLSALDSQRKLQFYEDRHQLPAPKWAELANLINNCMDYEPDFRPSFRAIIRDLNSLFTPDYELLTENDMLPNMRIGALGFSGAFEDRDPTQFEERHLKFLQQLGKGNFGSVEMCRYDPLQDNTGEVVAVKKLQHSTEEHLRDFEREIEILKSLQHDNIVKYKGVCYSAGRRNLKLIMEYLPYGSLRDYLQKHKERIDHIKLLQYTSQICKGMEYLGTKRYIHRDLATRNILVENENRVKIGDFGLTKVLPQDKEYYKVKEPGESPIFWYAPESLTESKFSVASDVWSFGVVLYELFTYIEKSKSPPAEFMRMIGNDKQGQMIVFHLIELLKNNGRLPRPDGCPDEIYMIMTECWNNNVNQRPSFRDLALRVDQIRDNMAG
In the case of B1, the binding entry in assay [1] is listed as “binds”.

B2: JAK2 (endogenous), O60674 1-1132 (protein)
chain: MGMACLTMTEMEGTSTSSIYQNGDISGNANSMKQIDPVLQVYLYHSLGKSEADYLTFPSGEYVAEEICIAASKACGITPVYHNMFALMSETERIWYPPNHVFHIDESTRHNVLYRIRFYFPRWYCSGSNRAYRHGISRGAEAPLLDDFVMSYLFAQWRHDFVHGWIKVPVTHETQEECLGMAVLDMMRIAKENDQTPLAIYNSISYKTFLPKCIRAKIQDYHILTRKRIRYRFRRFIQQFSQCKATARNLKLKYLINLETLQSAFYTEKFEVKEPGSGPSGEEIFATIIITGNGGIQWSRGKHKESETLTEQDLQLYCDFPNIIDVSIKQANQEGSNESRVVTIHKQDGKNLEIELSSLREALSFVSLIDGYYRLTADAHHYLCKEVAPPAVLENIQSNCHGPISMDFAISKLKKAGNQTGLYVLRCSPKDFNKYFLTFAVERENVIEYKHCLITKNENEEYNLSGTKKNFSSLKDLLNCYQMETVRSDNIIFQFTKCCPPKPKDKSNLLVFRTNGVSDVPTSPTLQRPTHMNQMVFHKIRNEDLIFNESLGQGTFTKIFKGVRREVGDYGQLHETEVLLKVLDKAHRNYSESFFEAASMMSKLSHKHLVLNYGVCVCGDENILVQEFVKFGSLDTYLKKNKNCINILWKLEVAKQLAWAMHFLEENTLIHGNVCAKNILLIREEDRKTGNPPFIKLSDPGISITVLPKDILQERIPWVPPECIENPKNLNLATDKWSFGTTLWEICSGGDKPLSALDSQRKLQFYEDRHQLPAPKWAELANLINNCMDYEPDFRPSFRAIIRDLNSLFTPDYELLTENDMLPNMRIGALGFSGAFEDRDPTQFEERHLKFLQQLGKGNFGSVEMCRYDPLQDNTGEVVAVKKLQHSTEEHLRDFEREIEILKSLQHDNIVKYKGVCYSAGRRNLKLIMEYLPYGSLRDYLQKHKERIDHIKLLQYTSQICKGMEYLGTKRYIHRDLATRNILVENENRVKIGDFGLTKVLPQDKEYYKVKEPGESPIFWYAPESLTESKFSVASDVWSFGVVLYELFTYIEKSKSPPAEFMRMIGNDKQGQMIVFHLIELLKNNGRLPRPDGCPDEIYMIMTECWNNNVNQRPSFRDLALRVDQIRDNMAG
In the case of B2, the binding result in assay [2] is “binds”.
